Test results reported in PubChem BioAssay AID651803 (National Center for Advancing Translational Sciences (NCATS), 2012).
Out of some 1,200 compounds screened, fewer than 10 were called active. Calls follow the shape of the dose curve; as a rule, active = well fitted curve in the direction sought with a large enough effect; inconclusive = small, poorly fitted or top-dose-only effect, or another doubt; inactive = no such curve, though single readings can be large or run the other way. Some of the results follow.

By UniProt entry, the sequences of proteins in these tests, tags left out. Where a name states a change or a piece, a line headed by the entry shows the natural chain unless it says otherwise.
UniProt P11308: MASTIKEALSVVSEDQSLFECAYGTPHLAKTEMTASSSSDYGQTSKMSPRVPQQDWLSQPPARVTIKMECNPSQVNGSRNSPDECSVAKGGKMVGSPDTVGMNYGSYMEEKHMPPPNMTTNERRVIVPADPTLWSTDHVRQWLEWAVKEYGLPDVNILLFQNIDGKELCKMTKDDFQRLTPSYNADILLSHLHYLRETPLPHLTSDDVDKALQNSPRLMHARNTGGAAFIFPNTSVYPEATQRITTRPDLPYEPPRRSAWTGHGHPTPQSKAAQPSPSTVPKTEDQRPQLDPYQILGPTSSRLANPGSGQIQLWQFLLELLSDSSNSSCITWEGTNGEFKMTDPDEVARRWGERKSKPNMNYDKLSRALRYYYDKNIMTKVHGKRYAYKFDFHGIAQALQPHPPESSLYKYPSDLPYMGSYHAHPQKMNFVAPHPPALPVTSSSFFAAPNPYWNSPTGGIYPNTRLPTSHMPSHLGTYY

Biological target: Transcriptional regulator ERG (Homo sapiens) (UniProt P11308)
Assay: qHTS for Small Molecule Inhibitors of the ERG Ets/DNA interaction: TR assay against cherry picks; also: % of control where 0% means no effect
Conditions: ERG Ets domain-DNA fluorescence polarization, Texas red probe; at 154 µM (top of the series)
Procedure, shortened: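 Polarization read sequentially for fluorescein (ex 480/em 535 nm) and Texas red (ex 555/em 632 nm) probes, 5 nM and 100 nM solutions, displaced from His-ERG Ets domain (1 uM solution), pH 7.5 Tris/KCl/EDTA/DTT buffer.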

Activity change, negative = inhibition, inactive:
O=C1COc2ccc(S(=O)(=O)Nc3ccc4c(c3)OCO4)cc2N1 2.48%
Cn1nnnc1-c1cc(Cl)cc(Cl)c1 -8.77%
COc1ccc(/C=C/c2c(-c3ccc(OC)cc3)sc3cc(OC)c(OC)cc23)cc1 -3.78%
CCc1nn2c(-c3ccco3)ccnc2c1-c1ccc(F)cc1 4.11%
Cc1nnc(SCC(=O)NNC(=O)c2ccccc2)n1-c1ccccc1 -10.7%
CCCC(NC(=O)C(C)Sc1nnnn1C1CC1)c1ccccc1 (stereo unspecified) 0.633%
Cc1cc(C)cc(NC(=O)[C@H](Cc2c[nH]c3ccccc23)NC(=O)[C@@H]2Cc3ccccc3CN2)c1 -3.77%
CCC1Oc2ccccc2N(CC(=O)NC2CC2)C1=O (stereo unspecified) -0.665%
COCCN1CCN(C(=O)C2CCC(=O)N(Cc3ccccc3OC)C2)CC1 (stereo unspecified) 1.79%
Cc1cc2cc(CNC(=O)C(C)Oc3ccccc3)ccc2n1C (stereo unspecified) 53.7%
CCOc1cccc(CNc2ccc(O)cc2)c1OCc1ccc(Cl)cc1Cl -9.02%
N#Cc1ccc(CN2CCN(C(=O)CN3C(=O)NC4(CCCC4)C3=O)CC2)cc1 -15.8%
CC(NC(=O)c1nn(C)c2c1CS(=O)(=O)c1ccccc1-2)c1ccccc1 (stereo unspecified) -13.1%
N#CCCN(C(=S)NC(=O)C1CCCCC1)c1ccccc1F -3.69%
O=C(NCCc1ccc(Cl)cc1)/C(=C/c1cccnc1)NC(=O)c1ccccc1 1.66%
Cn1c(=O)c2sccc2n2c(CCCC(=O)NCc3ccco3)nnc12 6.1%
Cc1cc(/C=N/NC(N)=S)c(O)c(/C=N/NC(N)=S)c1 -3.87%
CCCn1c(SCC(=O)c2cc(C)n(-c3ccc4c(c3)OCO4)c2C)n[nH]c1=O 6.3%
CCOC(=O)C1CCN(C(=O)c2cccc(S(=O)(=O)N3CCCc4ccccc43)c2)CC1 -15.3%
CC(=O)Nc1cccc(C(=O)NC2CCCc3c2cnn3-c2ccc(C(C)(C)C)cc2)c1 (stereo unspecified) 0.592%
O=C1c2ccccc2C(=O)N1CCOc1ccccc1Br -15.6%
CCc1ccc2c(c1)c(=O)c(C(=O)c1ccc(C)cc1)cn2CC(=O)Nc1ccccc1C 2.71%
O=C(COC(=O)/C=C/c1cccs1)Nc1ccc(F)cc1 1.62%
O=C1CC(Cc2ccccc2)C(=O)N1c1ccc(Cl)cn1 (stereo unspecified) 8.77%
N/C(=N\N=C\c1ccc(O)c(O)c1)c1nonc1N -16.2%
COc1ccc(-c2ccc(SCC(=O)NCc3ccc4c(c3)OCO4)nn2)cc1OC -14.9%
Cc1cc(C)cc(C(=O)Nc2nnc(SCC(=O)NCC3CCCO3)s2)c1 (stereo unspecified) -24.4%
CCN1C(=O)C(CC(=O)NCCc2ccccc2)N(NC(=O)c2cccnc2)C1=S (stereo unspecified) -8.52%
COc1cc(NC(=O)CCNC(=O)Cn2cnc3sc4c(c3c2=O)CCCC4)cc(OC)c1OC -8.12%
Cc1ccc(/C=C/C(=O)NCc2ccncc2)cc1 -10.5%
Cc1ccccc1S(=O)(=O)N(CC(O)CN1C(=O)NC(C)(C)C1=O)c1ccccc1 (stereo unspecified) -2.88%
Cc1[nH]ccc2c1[nH]c1cc(=O)ccc12 -23.3%
C=CCn1c(CNC(=O)c2ccccc2F)nnc1SCc1nc2ccccc2c(=O)[nH]1 1.69%
COc1ccc(OC)c(/C=N/NC(=O)CCCC(=O)Nc2cccc(Br)c2)c1 -4.73%
COc1ccc(Nc2ncnc3sccc23)cc1OC -6.91%
OCCC1CN(CCCc2ccccc2)CCN1CCc1ccccc1 (stereo unspecified) 2.73%
N#C/C(=C\c1c(N2CCC(C(N)=O)CC2)nc2ccccn2c1=O)C(=O)NCc1ccco1 3.81%
COc1ccc(CNC(=O)COC(=O)CCOc2ccccc2)cc1 3.98%
CCOC(=O)N1CCC(NC(=O)Cc2ccccc2)CC1 1.65%
O=c1c(-c2ccccc2)c[nH]n1-c1cccc([N+](=O)[O-])c1 -1.99%
CC(C)Oc1cccc(C(=O)C2CCCN(Cc3ccc4nonc4c3)C2)c1 (stereo unspecified) -8.31%
CCN(C(=O)CSc1nc2cc(C(=O)O)ccc2c(=O)n1Cc1ccccc1)c1ccccc1 0.985%
O=C(COC(=O)c1ccc(F)cc1F)c1ccc[nH]1 -11.5%
Oc1ccc(NCc2ccccc2OCc2ccccc2F)cc1 -10.1%
CCCCC(CC)COC(=O)CCCCC(=O)OCC(CC)CCCC (stereo unspecified) -14.4%
COC(=O)c1c(C)[nH]c(C(=O)C(C)OC(=O)c2cc(C)oc2C)c1C (stereo unspecified) -1.22%
CCN(CC)Cc1c(O)c(Cl)cc2c(C)cc(=O)oc12 3.38%
O=C(NNc1cc(N2CCOCC2)nc(N2CCOCC2)n1)c1ccc([N+](=O)[O-])cc1 1.37%
Cc1ccc(C(=O)Nc2ccc(C(=O)N/N=C/c3c[nH]c4ccccc34)cc2)cc1 -28.5%
CCCCc1nc2sc3c(=O)[nH]c(=S)[nH]c3c2c2c1CCC2 14.6%
CS(=O)(=O)NN1C(=O)c2ccccc2NC1c1cccc(O)c1 (stereo unspecified) -7.46%
FC(F)(F)COc1cc(-c2nnc(SCc3ccccc3)n2Cc2ccco2)cc(OCC(F)(F)F)n1 -11.3%
COc1ccc(C(=O)NCc2csc(C)n2)cc1OC1CCN(C(C)=O)CC1 -0.898%
O=C(NCCCN1CCOCC1)c1ccc(CSc2ccc(Cl)cc2)cc1 -2.11%
Cc1ccc(NS(=O)(=O)c2ccc(NC(=O)c3ccccc3C(=O)O)cc2)cc1C 2.33%
CN(CCO)C1=NS(=O)(=O)c2cc([N+](=O)[O-])ccc21 -10.2%
Cc1ccc2sc(NNC(=O)c3ccc4c(c3)OCCO4)nc2c1C 3.44%
COc1cccc2c1C(=N)c1c(O)c3c(c(O)c1C2=O)CC(O)(C(C)=O)CC3OC1CC(N)C(O)C(C)O1 (stereo unspecified) 10.9%
NS(=O)(=O)c1ccc(NC(=O)COC(=O)c2c3c(nc4ccccc24)/C(=C\c2ccc4c(c2)OCO4)CCC3)cc1 -7.4%
NS(=O)(=O)c1cccc(NC(=O)COC(=O)CSCc2ccccc2)c1 -2.35%
c1ccc(Oc2ncnc3ccccc23)cc1 -7.4%
O=C(O)CC(CC(=O)N1CCOCC1)c1ccccc1 (stereo unspecified) 1.81%
COc1cccc(C(=O)c2c(C)c(CCC#N)n3ccccc23)c1OC 2.32%
Oc1ccc(N=Cc2sc3ccccc3c2Cl)cc1 -8.52%
O=C(N/N=C/c1cc2c3c(c1O)CCCN3CCC2)c1ccccc1O 52.4%
COc1cccc(CCN2C(=O)C(=O)N([C@@H](CNCc3ccccc3)Cc3ccccc3F)C[C@@H]2C(C)(C)C)c1 -18.6%
CCCC(=O)Nn1cnc2c(c1=O)C1(CCCCC1)Cc1ccccc1-2 0.839%
O=C(c1ccccc1)N1C(=O)C(c2ccccc2)Oc2ccccc21 (stereo unspecified) -2.58%
CCCCCC(=O)NC(=S)Nc1cccc(-c2nc3ncccc3o2)c1 -5.77%
Cc1ccc(S(=O)(=O)N2CCOCC2)cc1NC(=O)CSc1nccn1C -17.4%
COc1ccccc1CN(C)C(=O)C(NC(=O)Cc1cccc2ccccc12)C(C)C (stereo unspecified) -0.0885%
CCOc1ccccc1C1CC(c2ccc(Br)cc2)Nc2nc(N)nn21 (stereo unspecified) -19.2%
CCCCc1nn2c(=O)cc(COC(=O)c3ccccc3NC(=O)C(C)(C)C)nc2s1 5.07%
Oc1ccc(NCc2cccc(OCc3ccccc3)c2)cc1 -13%
CC1(C)C2CCC1(CS(=O)(=O)Nc1ccccc1)C(=O)C2 (stereo unspecified) 3.72%
CC(=O)Nc1nnc(-c2c(-c3c(Cl)cccc3Cl)noc2C)o1 1.97%
Cc1ccc(-n2c3c(c(=O)[nH]c2=O)C(NS(=O)(=O)c2ccc(Cl)cc2)(C(F)(F)F)C(=O)N3)cc1 (stereo unspecified) -5.47%
CC(=O)c1cccc(NC(=O)C(C)OC(=O)CCc2nc3ccccc3c(=O)[nH]2)c1 (stereo unspecified) -4.59%
CCCCn1c(=O)[nH]c2nc3cc(N)ccc3nc2c1=O 15.6%
O=C(CCNC(=O)c1ccccc1Cl)NCCCSc1ccccc1 3.19%
Cc1cccc(/C=N/NC(=O)NC23CC4CC(CC(C4)C2)C3)n1 18%
Cc1ccc2c(c1)N(CCC(=O)NC1CCCCC1)C(=O)CO2 -14.2%
Cc1cccc(NC(=O)c2cc3ccccc3nc2C)c1 -2.6%
c1ccc(-c2cc3ccccc3[nH]2)cc1 2.83%
COc1ccc(-n2c(SCC(C)=O)nc3sc(C)c(C)c3c2=O)cc1 16.6%
CCCCn1c(N)c(N(CCOC)C(=O)c2ccc(S(=O)(=O)N3CCCCC3)cc2)c(=O)[nH]c1=O -2.18%
COc1cccc(N/C=C/c2onc(C)c2[N+](=O)[O-])c1 1.71%
Cc1cccc(CC(=O)NCCn2c(C)cc3ccccc32)c1 1.49%
Cc1ccc(NC(=O)CN2C(=O)C3CC=C(Cl)CC3C2=O)cc1 (stereo unspecified) 1.72%
O=C(C1CCN(CCc2ccccc2)CC1)N1CCOCC1 -9.51%
COc1ccc(COC(=O)C2=C(C)NC(=O)NC2c2ccccc2)cc1 (stereo unspecified) -12.2%

Of the compounds above, these contain fluorine.
Activity change, negative = inhibition, inactive:
CCc1nn2c(-c3ccco3)ccnc2c1-c1ccc(F)cc1 4.11%
N#CCCN(C(=S)NC(=O)C1CCCCC1)c1ccccc1F -3.69%
O=C(COC(=O)/C=C/c1cccs1)Nc1ccc(F)cc1 1.62%
C=CCn1c(CNC(=O)c2ccccc2F)nnc1SCc1nc2ccccc2c(=O)[nH]1 1.69%
O=C(COC(=O)c1ccc(F)cc1F)c1ccc[nH]1 -11.5%
Oc1ccc(NCc2ccccc2OCc2ccccc2F)cc1 -10.1%
FC(F)(F)COc1cc(-c2nnc(SCc3ccccc3)n2Cc2ccco2)cc(OCC(F)(F)F)n1 -11.3%
COc1cccc(CCN2C(=O)C(=O)N([C@@H](CNCc3ccccc3)Cc3ccccc3F)C[C@@H]2C(C)(C)C)c1 -18.6%
Cc1ccc(-n2c3c(c(=O)[nH]c2=O)C(NS(=O)(=O)c2ccc(Cl)cc2)(C(F)(F)F)C(=O)N3)cc1 (stereo unspecified) -5.47%

Quoted from above (2 entries):
Activity change, negative = inhibition, inactive:
Cc1cc2cc(CNC(=O)C(C)Oc3ccccc3)ccc2n1C (stereo unspecified) 53.7%
CCOc1cccc(CNc2ccc(O)cc2)c1OCc1ccc(Cl)cc1Cl -9.02%
